Results taken from PubChem BioAssay AID248 (DTP/NCI, 2004).
The list shows only some results of the screen, not a fair sample: it covers a few groups of compounds. Not every dose and run of a compound is shown. T/C: endpoint of the treated group in % of that of the vehicle group. Where survival is the endpoint, this PubChem deposit counts one and a half times the control or more as active, and values a quarter to a half above the control carry no call in these data; other NCI protocols may use other cut-offs. Schedule codes are those of the source, read here as Q, the interval in days (D) or hours (H), X, the number of doses. Some entries show no survivor count and are marked so; the dose need not have been tolerated. Some entries were tested several times; the results are listed from low to high. Signs of the kind (2×) count equal records among those shown. Some schedule codes hold Z or #, which are not explained here.

System: L1210 leukemia ip in BDF1 mice, survival T/C
Test: NCI In Vivo Anticancer Drug Screen. Data for tumor model L1210 Leukemia (intraperitoneal) in B6D2F1 (BDF1) mice
Conditions: T/C endpoint: mean survival time, higher T/C = longer survival

CC(=O)OCC12CCC(C)=CC1OC1C(O)C(OC(C)=O)C2(C)C12CO2 (centres undefined)
T/C (dose: 0.02 mg/kg/injection, schedule: Q01DX009 (ip), vehicle: other): 93 [survivor count not shown], 108 [survivor count not shown], 115 % of control [survivor count not shown]
T/C (dose: 0.05 mg/kg/injection, schedule: Q01DX009 (ip), vehicle: other): 108 [survivor count not shown], 111 [survivor count not shown], 126 [survivor count not shown], 133 % of control [survivor count not shown]
T/C (dose: 0.05 mg/kg/injection, schedule: Q04DX003 (ip), vehicle: other): 124 % of control [survivor count not shown]
T/C (dose: 0.05 mg/kg/injection, schedule: Q#A X026 (ip), vehicle: saline): 97 % of control [survivor count not shown]
T/C (dose: 0.1 mg/kg/injection, schedule: Q01DX009 (ip), vehicle: other): 111 [survivor count not shown], 116 [survivor count not shown], 119 % of control [survivor count not shown] (2×)
T/C (dose: 0.1 mg/kg/injection, schedule: Q01DX013 (ip), vehicle: saline): 117 % of control [survivor count not shown]
T/C (dose: 0.1 mg/kg/injection, schedule: Q04DX003 (ip), vehicle: other): 125 % of control [survivor count not shown]
T/C (dose: 0.1 mg/kg/injection, schedule: Q#A X026 (ip), vehicle: saline): 108 % of control [survivor count not shown]
T/C (dose: 0.13 mg/kg/injection, schedule: Q01DX009 (ip), vehicle: saline): 118 % of control [survivor count not shown]
T/C (dose: 0.2 mg/kg/injection, schedule: Q01DX009 (ip), vehicle: other): 112 [survivor count not shown], 116 [survivor count not shown], 124 [survivor count not shown], 127 [survivor count not shown], 134 % of control [survivor count not shown]
T/C (dose: 0.2 mg/kg/injection, schedule: Q01DX013 (im), vehicle: saline): 104 % of control [survivor count not shown]
T/C (dose: 0.2 mg/kg/injection, schedule: Q01DX013 (ip), vehicle: saline): 114 % of control [survivor count not shown]
T/C (dose: 0.2 mg/kg/injection, schedule: Q01DX013 (sc), vehicle: saline): 110 % of control [survivor count not shown]
T/C (dose: 0.2 mg/kg/injection, schedule: Q04DX003 (ip), vehicle: other): 139 % of control [survivor count not shown]
T/C (dose: 0.2 mg/kg/injection, schedule: Q#A X026 (ip), vehicle: saline): 121 % of control [survivor count not shown]
T/C (dose: 0.25 mg/kg/injection, schedule: Q01DX001 (ip), vehicle: saline): 111 % of control [survivor count not shown]
T/C (dose: 0.25 mg/kg/injection, schedule: Q01DX009 (ip), vehicle: saline, evaluated on day 30): 125 % of control [survivor count not shown]
T/C (dose: 0.25 mg/kg/injection, schedule: Q01DX009 (ip), vehicle: saline, evaluated on day 60): 114 % of control [survivor count not shown]
T/C (dose: 0.25 mg/kg/injection, schedule: Q02DX005 (ip), vehicle: saline): 125 % of control [survivor count not shown]
T/C (dose: 0.25 mg/kg/injection, schedule: Q04DX003 (ip), vehicle: saline): 108 % of control [survivor count not shown]
T/C (dose: 0.25 mg/kg/injection, schedule: Q05DX001 (ip), vehicle: saline): 106 % of control [survivor count not shown]
T/C (dose: 0.4 mg/kg/injection, schedule: Q01DX009 (ip), vehicle: other): 119 [survivor count not shown], 129 [survivor count not shown], 138 [survivor count not shown], 140 [survivor count not shown], 178 % of control [survivor count not shown]
T/C (dose: 0.4 mg/kg/injection, schedule: Q01DX013 (im), vehicle: saline): 110 % of control [survivor count not shown]
T/C (dose: 0.4 mg/kg/injection, schedule: Q01DX013 (ip), vehicle: saline): 139 % of control [survivor count not shown]
T/C (dose: 0.4 mg/kg/injection, schedule: Q01DX013 (oral), vehicle: saline): 98 % of control [survivor count not shown]
T/C (dose: 0.4 mg/kg/injection, schedule: Q01DX013 (sc), vehicle: saline): 114 % of control [survivor count not shown]
T/C (dose: 0.4 mg/kg/injection, schedule: Q04DX003 (ip), vehicle: other): 143 % of control [survivor count not shown]
T/C (dose: 0.4 mg/kg/injection, schedule: Q#A X026 (ip), vehicle: saline): 117 % of control [survivor count not shown]
T/C (dose: 0.5 mg/kg/injection, schedule: Q01DX001 (ip), vehicle: saline): 108 % of control [survivor count not shown]
T/C (dose: 0.5 mg/kg/injection, schedule: Q01DX009 (ip), vehicle: acetone): 126 % of control [survivor count not shown]
T/C (dose: 0.5 mg/kg/injection, schedule: Q01DX009 (ip), vehicle: saline, evaluated on day 30): 127 % of control [survivor count not shown]
T/C (dose: 0.5 mg/kg/injection, schedule: Q01DX009 (ip), vehicle: saline, evaluated on day 60): 120 % of control [survivor count not shown]
T/C (dose: 0.5 mg/kg/injection, schedule: Q01DX009 (sc), vehicle: saline): 112 % of control [survivor count not shown]
T/C (dose: 0.5 mg/kg/injection, schedule: Q02DX005 (ip), vehicle: saline): 120 % of control [survivor count not shown]
T/C (dose: 0.5 mg/kg/injection, schedule: Q03DX003 (ip), vehicle: other): 108 % of control [survivor count not shown]
T/C (dose: 0.5 mg/kg/injection, schedule: Q04DX003 (ip), vehicle: saline): 120 % of control [survivor count not shown]
T/C (dose: 0.5 mg/kg/injection, schedule: Q05DX001 (ip), vehicle: saline): 111 % of control [survivor count not shown]
T/C (dose: 0.8 mg/kg/injection, schedule: Q01DX009 (ip), vehicle: other): 134 [survivor count not shown], 138 [survivor count not shown], 153 [survivor count not shown], 159 % of control [survivor count not shown]
T/C (dose: 0.8 mg/kg/injection, schedule: Q01DX013 (im), vehicle: saline): 141 % of control [survivor count not shown]
T/C (dose: 0.8 mg/kg/injection, schedule: Q01DX013 (ip), vehicle: saline): 131 % of control [survivor count not shown]
T/C (dose: 0.8 mg/kg/injection, schedule: Q01DX013 (oral), vehicle: saline): 108 % of control [survivor count not shown]
T/C (dose: 0.8 mg/kg/injection, schedule: Q#A X026 (ip), vehicle: saline): 132 % of control [survivor count not shown]
T/C (dose: 1.0 mg/kg/injection, schedule: Q01DX001 (ip), vehicle: saline): 108 % of control [survivor count not shown]
T/C (dose: 1.0 mg/kg/injection, schedule: Q01DX009 (ip), vehicle: acetone): 140 % of control [survivor count not shown]
T/C (dose: 1.0 mg/kg/injection, schedule: Q01DX009 (ip), vehicle: saline, evaluated on day 30): 129 % of control [survivor count not shown]
T/C (dose: 1.0 mg/kg/injection, schedule: Q01DX009 (ip), vehicle: saline, evaluated on day 60): 125 % of control [survivor count not shown]
T/C (dose: 1.0 mg/kg/injection, schedule: Q01DX009 (sc), vehicle: saline): 115 % of control [survivor count not shown]
T/C (dose: 1.0 mg/kg/injection, schedule: Q02DX005 (ip), vehicle: saline): 127 % of control [survivor count not shown]
T/C (dose: 1.0 mg/kg/injection, schedule: Q03DX003 (ip), vehicle: other): 115 % of control [survivor count not shown]
T/C (dose: 1.0 mg/kg/injection, schedule: Q04DX003 (ip), vehicle: saline): 115 % of control [survivor count not shown]
T/C (dose: 1.0 mg/kg/injection, schedule: Q05DX001 (ip), vehicle: saline): 106 % of control [survivor count not shown]
T/C (dose: 1.2 mg/kg/injection, schedule: Q01DX009 (ip), vehicle: other): 150 % of control [survivor count not shown]
T/C (dose: 1.6 mg/kg/injection, schedule: Q01DX009 (ip), vehicle: other): 94 [survivor count not shown], 151 [survivor count not shown], 153 [survivor count not shown], 159 [survivor count not shown], 198 % of control [survivor count not shown]
T/C (dose: 1.6 mg/kg/injection, schedule: Q01DX013 (im), vehicle: saline): 118 % of control [survivor count not shown]
T/C (dose: 1.6 mg/kg/injection, schedule: Q01DX013 (ip), vehicle: saline): 145 % of control [survivor count not shown]
T/C (dose: 1.6 mg/kg/injection, schedule: Q01DX013 (sc), vehicle: saline): 159 % of control [survivor count not shown]
T/C (dose: 2.0 mg/kg/injection, schedule: Q01DX001 (ip), vehicle: saline, evaluated on day 30): 113 % of control [survivor count not shown]
T/C (dose: 2.0 mg/kg/injection, schedule: Q01DX001 (ip), vehicle: saline, evaluated on day 60): 110 % of control [survivor count not shown]
T/C (dose: 2.0 mg/kg/injection, schedule: Q01DX009 (ip), vehicle: acetone): 136 % of control [survivor count not shown]
T/C (dose: 2.0 mg/kg/injection, schedule: Q01DX009 (ip), vehicle: other): 141 % of control [survivor count not shown]
T/C (dose: 2.0 mg/kg/injection, schedule: Q01DX009 (ip), vehicle: saline, evaluated on day 30): 155 % of control [survivor count not shown]
T/C (dose: 2.0 mg/kg/injection, schedule: Q01DX009 (ip), vehicle: saline, evaluated on day 60): 129 % of control [survivor count not shown]
T/C (dose: 2.0 mg/kg/injection, schedule: Q01DX009 (sc), vehicle: saline): 133 % of control [survivor count not shown]
T/C (dose: 2.0 mg/kg/injection, schedule: Q02DX005 (ip), vehicle: saline): 125 % of control [survivor count not shown]
T/C (dose: 2.0 mg/kg/injection, schedule: Q03DX003 (ip), vehicle: other): 108 % of control [survivor count not shown]
T/C (dose: 2.0 mg/kg/injection, schedule: Q04DX003 (ip), vehicle: saline, evaluated on day 30): 115 % of control [survivor count not shown]
T/C (dose: 2.0 mg/kg/injection, schedule: Q04DX003 (ip), vehicle: saline, evaluated on day 60): 115 % of control [survivor count not shown]
T/C (dose: 2.0 mg/kg/injection, schedule: Q04DX003 (oral), vehicle: saline): 108 % of control [survivor count not shown]
T/C (dose: 2.0 mg/kg/injection, schedule: Q05DX001 (ip), vehicle: saline): 104 % of control [survivor count not shown]
